In article PMC10954720:
No constants are given. Whether binding was seen depends on the method and setting. For some assays here: In cells and extracts the contact can be indirect. Some binding calls cover weakened binding; strength is not graded here.

T1: Rabenosyn-5 (human (endogenous in HeLa)) (UniProt Q9H1K0)
T1 sequence: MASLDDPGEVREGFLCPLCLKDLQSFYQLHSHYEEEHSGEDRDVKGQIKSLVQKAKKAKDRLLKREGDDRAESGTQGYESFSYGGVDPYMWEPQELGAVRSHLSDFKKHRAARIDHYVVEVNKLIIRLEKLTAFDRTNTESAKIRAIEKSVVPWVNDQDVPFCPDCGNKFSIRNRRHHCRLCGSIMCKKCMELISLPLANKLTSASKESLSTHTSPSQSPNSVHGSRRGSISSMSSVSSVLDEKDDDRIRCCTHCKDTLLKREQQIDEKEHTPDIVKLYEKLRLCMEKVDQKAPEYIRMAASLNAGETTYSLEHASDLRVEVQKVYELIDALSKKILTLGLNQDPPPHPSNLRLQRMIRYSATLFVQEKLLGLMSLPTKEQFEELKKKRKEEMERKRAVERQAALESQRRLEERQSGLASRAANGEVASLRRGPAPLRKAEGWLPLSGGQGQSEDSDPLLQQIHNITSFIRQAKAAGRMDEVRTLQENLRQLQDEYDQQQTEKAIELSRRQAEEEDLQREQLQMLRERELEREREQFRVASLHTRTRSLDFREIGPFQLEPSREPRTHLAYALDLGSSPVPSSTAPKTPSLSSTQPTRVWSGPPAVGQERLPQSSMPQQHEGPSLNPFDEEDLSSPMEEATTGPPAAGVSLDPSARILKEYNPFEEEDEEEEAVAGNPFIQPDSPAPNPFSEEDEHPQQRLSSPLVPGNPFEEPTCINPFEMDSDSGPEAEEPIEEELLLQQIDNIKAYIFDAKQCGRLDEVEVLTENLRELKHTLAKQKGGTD

T2: syntaxin 6 (Rattus norvegicus) (UniProt Q63635)
T2 sequence: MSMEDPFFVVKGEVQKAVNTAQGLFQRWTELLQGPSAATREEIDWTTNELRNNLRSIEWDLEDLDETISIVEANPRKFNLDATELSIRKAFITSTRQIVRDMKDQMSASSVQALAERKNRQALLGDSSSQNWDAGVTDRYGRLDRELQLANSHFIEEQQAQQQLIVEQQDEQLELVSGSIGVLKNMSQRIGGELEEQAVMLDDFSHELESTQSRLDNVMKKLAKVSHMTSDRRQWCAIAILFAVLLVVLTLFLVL

B1: VPS45 (protein, UniProt Q9NRW7 1-570)
chain: MNVVFAVKQYISKMIEDSGPGMKVLLMDKETTGIVSMVYTQSEILQKEVYLFERIDSQNREIMKHLKAICFLRPTKENVDYIIQELRRPKYTIYFIYFSNVISKSDVKSLAEADEQEVVAEVQEFYGDYIAVNPHLFSLNILGCCQGRNWDPAQLSRTTQGLTALLLSLKKCPMIRYQLSSEAAKRLAECVKQVITKEYELFEFRRTEVPPLLLILDRCDDAITPLLNQWTYQAMVHELLGINNNRIDLSRVPGISKDLREVVLSAENDEFYANNMYLNFAEIGSNIKNLMEDFQKKKPKEQQKLESIADMKAFVENYPQFKKMSGTVSKHVTVVGELSRLVSERNLLEVSEVEQELACQNDHSSALQNIKRLLQNPKVTEFDAARLVMLYALHYERHSSNSLPGLMMDLRNKGVSEKYRKLVSAVVEYGGKRVRGSDLFSPKDAVAITKQFLKGLKGVENVYTQHQPFLHETLDHLIKGRLKENLYPYLGPSTLRDRPQDIIVFVIGGATYEEALTVYNLNRTTPGVRIVLGGTTVHNTKSFLEEVLASGLHSRSKESSQVTSRSASRR
B2: Vps51 (protein, UniProt Q9UID3 1-782)
chain: MAAAAAAGPSPGSGPGDSPEGPEGEAPERRRKAHGMLKLYYGLSEGEAAGRPAGPDPLDPTDLNGAHFDPEVYLDKLRRECPLAQLMDSETDMVRQIRALDSDMQTLVYENYNKFISATDTIRKMKNDFRKMEDEMDRLATNMAVITDFSARISATLQDRHERITKLAGVHALLRKLQFLFELPSRLTKCVELGAYGQAVRYQGRAQAVLQQYQHLPSFRAIQDDCQVITARLAQQLRQRFREGGSGAPEQAECVELLLALGEPAEELCEEFLAHARGRLEKELRNLEAELGPSPPAPDVLEFTDHGGSGFVGGLCQVAAAYQELFAAQGPAGAEKLAAFARQLGSRYFALVERRLAQEQGGGDNSLLVRALDRFHRRLRAPGALLAAAGLADAATEIVERVARERLGHHLQGLRAAFLGCLTDVRQALAAPRVAGKEGPGLAELLANVASSILSHIKASLAAVHLFTAKEVSFSNKPYFRGEFCSQGVREGLIVGFVHSMCQTAQSFCDSPGEKGGATPPALLLLLSRLCLDYETATISYILTLTDEQFLVQDQFPVTPVSTLCAEARETARRLLTHYVKVQGLVISQMLRKSVETRDWLSTLEPRNVRAVMKRVVEDTTAIDVQVGLLYEEGVRKAQSSDSSKRTFSVYSSSRQQGRYAPSYTPSAPMDTNLLSNIQKLFSERIDVFSPVEFNKVSVLTGIIKISLKTLLECVRLRTFGRFGLQQVQVDCHFLQLYLWRFVADEELVHLLLDEVVASAALRCPDPVPMEPSVVEVICERG

What was measured:
[1] = target: T1, Rabenosyn-5 (human (endogenous in HeLa)); test: co-IP; immunodepletion: HeLa cytosol fractions incubated with primary antibody against the respective PtdIns(3)P binding protein or control IgG overnight at 4 °C, antibody-protein complex removed with Protein A Sepharose; depleted cytosol immunoblotted (co-depletion)
[2] = target: T2, syntaxin 6 (Rattus norvegicus); test: recruitment to proteoliposomes; syntaxin 6 liposomes with or without 1% PtdIns(3)P; method told only in Supplementary Fig. 2e; only the target purified

Binder	binding [1]	binding [2]
B1	binds	
B2		binds
